Laboratory results published in PubChem BioAssay AID540276 (National Center for Advancing Translational Sciences (NCATS), 2011).
About 5,400 (1.8%) of roughly 300,000 compounds were called active. The shares of active, inactive and inconclusive entries below differ from those in the screen. Calls come from the whole dose curve; tested in HEK293 cells. Potencies beside an inconclusive call are fits to weak or partial responses and may not hold up.

experiment: qHTS for inhibitors of binding or entry into cells for Marburg Virus; conditions: Marburg virus pseudotyped entry inhibition, cell reporter; activity change, negative = inhibition: at 37.8 µM (top of the series) unless noted
% is set by controls: 0 for no effect and ±100 for the full control effect; potency is the fitted concentration of half-maximal effect.

SMILES | Potency | activity change, negative = inhibition
Cc1ccc(C(=O)COC(=O)Cc2ccccc2)cc1 | inconclusive: 35.5 µM [activator, single point] | 
CCCOC(=O)c1cccc(NC(=O)C(C)(C)C)c1 |  | inactive: 30%
S=C(Nc1ccc(Cl)cc1)N(CCCN1CCOCC1)Cc1ccco1 | inconclusive: 0.355 µM [activator, full curve, poor fit] | 
Cc1ccc2cc(C#N)c(N3CCCN(S(=O)(=O)c4ccc(F)cc4)CC3)nc2c1 | inconclusive: 29.1 µM [inhibitor, single point] | 
S=C(N/N=C/c1cccs1)NC1CC2CCC1C2 (centres undefined) | inconclusive: 20 µM [inhibitor, single point] | 
C/C(=N/Oc1nc(C)cc(C)n1)c1ccccc1 |  | inactive: 26.5% [at 46.1 µM]
COC(=O)C1CC(O)CN1C(=O)Nc1cccc(C(F)(F)F)c1 (centres undefined) | inconclusive: 2.82 µM [inhibitor, single point] | 
O=C(CSc1nnc(CNC(=O)c2ccccc2)o1)NCC1CCCO1 (centres undefined) |  | inactive: -8.99%
CCN(Cc1ccccc1)CC(O)COC(c1ccc(OC)cc1)c1ccc(OC)cc1 (centres undefined) | inconclusive: 17.8 µM [inhibitor, partial curve, poor fit] | 
CCOC(=O)C1=C(O)CSC1=Nc1cccc(Cl)c1 | inconclusive: 0.316 µM [activator, full curve, poor fit] | 
FC(F)(F)c1cc(Sc2ccccc2)nc(-c2ccccn2)n1 | inconclusive: 32.6 µM [inhibitor, single point] | 
Cc1ccc(SCC(=O)NC2CCS(=O)(=O)C2)cc1C (centres undefined) |  | inactive: 8.69%
COCCCNC(=S)NCCCNc1nc2cc(C)cc(C)c2cc1C#N | inconclusive: 12.6 µM [inhibitor, partial curve] | 
CCN(c1ccccc1)S(=O)(=O)c1ccc(OC)c(NC(=O)CNC)c1 | inconclusive: 35.5 µM [inhibitor, single point] | 
Cc1ccc(CNC(=O)CCCn2c(=O)c3ccccc3n(CC(=O)Nc3ccc(C)cc3)c2=O)cc1 |  | inactive: -4.04% [at 46.1 µM]
Cc1cccc(NC(=O)c2cc(-c3cc(Cl)ccc3O)n[nH]2)c1 | inconclusive: 3.55 µM [activator, single point] | 
COc1ccc(-c2nc(-c3ccccc3)c(Nc3ccc4ccccc4c3)o2)cc1 | inconclusive: 7.5 µM [inhibitor, single point] | 
COc1ccc(OC)c(C2NC(=S)NC(C)=C2C(=O)Nc2ccccn2)c1 (centres undefined) |  | inactive: 29.7% [at 46.1 µM]
COc1ccc(C(=O)C2CCN(CC(=O)Nc3ccc(C)cc3)CC2)cc1 | inconclusive: 35.5 µM [inhibitor, single point] | 
CC(C)c1nnc(NC(=O)CCC(=O)NCc2ccco2)s1 | inconclusive: 0.103 µM [inhibitor, full curve, poor fit] | 
COc1ccc(N=C2C(=O)Nc3ccccc32)cc1 |  | inactive: 6.13%
Cc1nc2cc(-c3ccccc3)nn2c(C)c1CCC(=O)Nc1ccc(F)cc1F |  | inactive: 4.31% [at 46.1 µM]
O=C(Nc1nn(Cc2ccc(Cl)cc2)cc1Br)c1ccc(COc2ccccc2Cl)o1 | inconclusive: 4.47 µM [inhibitor, partial curve, poor fit] | 

SMILES | Potency | activity change, negative = inhibition
COc1cc(CC(=O)Oc2ccc3c(c2)OCO3)cc(OC)c1OC |  | inactive: 7.06%
CCOC(=O)Cc1c(Sc2ccccc2)c2cc(C)ccc2n1C | inconclusive: 5.62 µM [inhibitor, single point] | 
CC(C)(O)C#Cc1ccc(C(=O)N2CCC(C(N)=O)(N3CCCCC3)CC2)o1 |  | inactive: 17.6%
O=[N+]([O-])c1cc(S(=O)(=O)Nc2ccccc2)ccc1N1CCN(c2ccc(O)cc2)CC1 |  | inactive: 0.642%
CCOc1ccc(NC(=S)N/N=C(\C)Cc2ccc(OC)cc2)cc1 |  | inactive: -1.25%
COc1ccc(-c2nc(CS(=O)(=O)CC(=O)NCc3ccccc3Br)c(C)o2)cc1 | inconclusive: 6.31 µM [activator, single point] | 
Cc1ccc(CN2CCN(Cc3cnn(-c4ccc(F)cc4)c3)CC2CCO)o1 (centres undefined) | inconclusive: 6.31 µM [inhibitor, single point] | 
O=C(Nc1ccsc1C(=O)N1CCCC1)c1ccccc1 | inconclusive: 6.31 µM [inhibitor, single point] | 
CCOc1ccc2nc(NC(=O)Nc3ccccc3)sc2c1 | inconclusive: 18.3 µM [inhibitor, single point] | 
O=C(/C=C/c1ccc(OC2CSC2)cc1)c1ccccc1 | inconclusive: 18.3 µM [inhibitor, single point] | 
CC1(NC(=O)N2CCCCC2)CCS(=O)(=O)C1 (centres undefined) |  | inactive: 1.35%
Cc1[nH]c2ccccc2c1C(=O)C(=O)NCCc1ccc(S(N)(=O)=O)cc1 | inconclusive: 2.51 µM [inhibitor, partial curve, poor fit] | 
CCOc1ccc(C(=O)Nc2ccc3nc(SCC(=O)N4CCc5ccccc54)sc3c2)cc1 | inconclusive: 5.01 µM [inhibitor, single point] | 
COC(=O)c1c(NC(=O)c2ccco2)sc2c1C(C(=O)OC)CC2 (centres undefined) | inconclusive: 6.31 µM [inhibitor, single point] | 
Cc1cc(NC(=O)CCC(=O)N(c2ccccc2)C(C(=O)NC(C)(C)C)c2ccccc2Cl)no1 (centres undefined) | inconclusive: 10 µM [inhibitor, partial curve, poor fit] | 
CC(=O)c1c(C)oc2c1cc(NS(=O)(=O)c1ccc(C(=O)O)cc1)c1ccccc12 | inconclusive: 35.5 µM [inhibitor, single point] | 
O=C1CC(c2ccccc2)SC(N(c2ccccc2)c2ccccc2)=N1 (centres undefined) | inconclusive: 2.51 µM [inhibitor, single point] | 
O=C(NC1CCCCCC1)C(=S)NC1CCCCC1 |  | inactive: -4.84% [at 46.1 µM]
CCOc1ccc(Br)cc1S(=O)(=O)Nc1cccc(S(=O)(=O)N(C)c2ccccc2)c1 | active: 7.94 µM | 
CC(=O)Nc1ccc(-c2csc(NC(=O)CC(NC(C)=O)c3ccccc3)n2)cc1 (centres undefined) |  | inactive: -5.74%
COc1ccc(-c2nnc(-c3ccc(N(C)C)cc3)o2)cc1 | inconclusive: 20.6 µM [activator, partial curve, poor fit] | 
CCN(CC)CCNCC(=O)N1c2ccccc2CCc2ccc(NC(=O)OC)cc21 | inconclusive: 8.91 µM [inhibitor, partial curve, poor fit] | 
CCC(=O)Nc1cc2nn(-c3ccc(OC)cc3)nc2cc1C | inconclusive: 5.17 µM [inhibitor, partial curve] | 

SMILES | Potency | activity change, negative = inhibition
CCOc1ccc(CCNC(=O)c2cc3sc(Cl)cc3n2C)cc1OCC | inconclusive: 29.1 µM [inhibitor, single point] | 
O=C(COc1ncnc2ccccc12)NCCC1=CCCCC1 |  | inactive: 5.56%
COc1cccc(-c2nnc(SCc3cccnc3)o2)c1 | inconclusive: 0.82 µM [activator, full curve, poor fit] | 
COc1cccc2cc(C(=O)Nc3cccc(C)n3)c(=O)oc12 | inconclusive: 0.708 µM [activator, full curve, poor fit] | 
N#CCC(=O)N/N=C/c1ccc(OCc2ccccc2)cc1 | inconclusive: 2.51 µM [activator, full curve] | 
CC1CC2(CCCCC2)Nc2c1ccc1ccccc21 (centres undefined) |  | inactive: 5.52%
COc1cc2c(cc1OC)C(COc1ccc3c(C)cc(=O)oc3c1)N(C(=O)c1ccccc1C)CC2 (centres undefined) | inconclusive: 6.31 µM [inhibitor, single point] | 
COc1ccc(-n2nnnc2C2CCN(S(=O)(=O)c3ccc(C)cc3)CC2)cc1 | inconclusive: 0.501 µM [inhibitor, full curve, poor fit] | 
Cc1cc(SCC(=O)NCCN2C(=O)CSC2=O)nc2ccccc12 | inconclusive: 0.1 µM [activator, full curve, poor fit] | 
O=C(O)/C=C/c1cn(-c2ccccc2)nc1-c1ccc(-c2ccc([N+](=O)[O-])cc2)o1 |  | inactive: 2.12% [at 46.1 µM]
N/C(CSc1ccccn1)=N\OCc1c(Cl)cccc1Cl | inconclusive: 22.4 µM [inhibitor, single point] | 
CN1C(=O)c2ccccc2Sc2ccc(NC(=O)N3CCN(c4ccccc4)CC3)cc21 | inconclusive: 3.16 µM [inhibitor, single point] | 
COc1cc(OC)cc(C(=O)NCCNC(=O)c2ccccc2)c1 | inconclusive: 35.5 µM [activator, single point] | 
COc1ccccc1/C=C/C(=O)NCCc1ccccn1 |  | inactive: 14.2% [at 46.1 µM]
Cc1ccccc1NC(=O)CCSc1nnnn1-c1ccccc1 | inconclusive: 1.16 µM [activator, single point] | 
CC(C)(C)n1nnnc1C(c1ccc(C#N)cc1)N1CCCC2(CCCCC2)C1 (centres undefined) | inconclusive: 11.6 µM [inhibitor, partial curve] | 
Cc1cc(C)c(OCCOCCN2CCN(C)CC2)c(Cl)c1 | inconclusive: 35.5 µM [inhibitor, single point] | 
O=C(CSc1nnc(CNC(=O)c2cccs2)o1)NC1CCCC1 | inconclusive: 11.2 µM [activator, partial curve, poor fit] | 
COc1ccc2cc(C(=O)C3CCCN(Cc4cccc(C)n4)C3)ccc2c1 (centres undefined) | active: 22.4 µM | 
O=c1oc2c3c(ccc2c2ccccc12)OCN(Cc1ccc(Cl)cc1)C3 | inconclusive: 12.6 µM [activator, single point] | 
CCN(CC)S(=O)(=O)c1ccc(Cl)c(NC(=O)COC(=O)c2cccn2C)c1 | inconclusive: 11.2 µM [inhibitor, partial curve, poor fit] | 
Cc1cc2cc(CNC(=O)c3cccc([N+](=O)[O-])c3)ccc2[nH]1 | inconclusive: 8.2 µM [activator, partial curve, poor fit] | 
Nc1nnc(-c2cc3ccccc3oc2=O)s1 | inconclusive: 2.51 µM [activator, full curve, poor fit] | 

Record cards, as listed above.
`CCOC(=O)Cc1c(Sc2ccccc2)c2cc(C)ccc2n1C` reads Potency: inconclusive: 5.62 µM [inhibitor, single point]
`Cc1nc2cc(-c3ccccc3)nn2c(C)c1CCC(=O)Nc1ccc(F)cc1F` reads activity change, negative = inhibition: inactive: 4.31% [at 46.1 µM]
`Cc1ccccc1NC(=O)CCSc1nnnn1-c1ccccc1` reads Potency: inconclusive: 1.16 µM [activator, single point]
`COc1cc2c(cc1OC)C(COc1ccc3c(C)cc(=O)oc3c1)N(C(=O)c1ccccc1C)CC2` (centres undefined) reads Potency: inconclusive: 6.31 µM [inhibitor, single point]
